Laboratory results taken from US6504005B1, “Long-acting drugs and pharmaceutical compositions comprising them” (Yeda Research and Development Co. Ltd., priority 1996, dated 2003).
Like-named read-outs stand apart in the source and are kept apart here.

System: Staphylococcus aureus
Experiment: microbe, parasite or virus in culture
Settings: for IC50: Staphylococcus aureus
Protocol: At the indicated time points, aliquots were withdrawn and analyzed for their potency to arrest growth of Staphylococcus aureus. Bacterial growth was then evaluated by increased turbidity measured spectroscopically at 700 nm.

## CC1=C(C(=O)O)N2C(=O)[C@@H](NC(=O)[C@H](N)c3ccccc3)[C@H]2SC1 [native cephalexin, 7-(D-α-aminophenylacetamido)desacetoxycephalosporanic acid, reference compound]
24 h, pH 7.4, read-out: Concentration inhibiting 50% of bacterial growth (μM) (IC50)
  IC50: 1.5 µM
72 h, pH 7.4, read-out: Concentration inhibiting 50% of bacterial growth (μM) (IC50)
  IC50: 5.3 µM
144 h, pH 7.4, read-out: Concentration inhibiting 50% of bacterial growth (μM) (IC50)
  IC50: 18 µM
read-out: Concentration inhibiting 50% of bacterial growth (μM) (IC50)
  IC50: 0.9 µM
pH 7.4, 37° C.
  Stability upon incubation: substantial time-dependent spontaneous inactivation
